Experimental data taken from US9988607B2, “Artificial three-dimensional microenvironment niche culture and methods of using the same” (priority 2008, dated 2018).

Tested on: HDF cells
Test: Long term induction of CiPSC from HDF with compound cocktails
Type: cell-based, human
Conditions: synchronization of cells

SMILES: CN[C@H]1CCc2cc(OC)c(OC)c(OC)c2-c2ccc(OC)c(=O)cc21 [Colcemid, N-deacetyl-N-Methylcolchicine]
- Efficiency of induction: increased efficiency
